Some of these results come from one statement about several compounds together.
System: cancer cells: colorectal, prostate, ovarian renal, pancreas, lung, gliomas, glioblastomas leukemia, lymphomas, melanomas, sarcomas and hepatoma
Conditions: all the above cancer cells

With CCN(CC)CCCC(C)Nc1c2ccc(Cl)cc2nc2ccc(OC)cc12 (stereo not shown) [QNC, Quinacrine] the “cytotoxicity, in vitro” value was 3.0 to 5.0 µM.

Source: US9180106B2, “Sigma receptors ligands with anti-apoptotic and/or pro-apoptotic properties, over cellular mechanisms, exhibiting prototypical cytoprotective and also anti-cancer activity” (Anavex Life Sciences Corp., priority 2009, dated 2015)
